Screen size: about 290,000 compounds; about 570 (0.2%) were called active. The shares of active, inactive and inconclusive entries below differ from those in the screen. Rule as the data show it: active = inhibition mostly above about 51% (no sharp cut-off); inconclusive = no clear call, values can overlap the other calls; inactive = mostly below about 53%.
Target: Voltage-dependent N-type calcium channel subunit alpha-1B (Homo sapiens) (UniProt Q00975)
Test: disruptors of CaV2.2 binding to Mint1 – biochemical, HTRF (AID 2073)
Details: HTRF protein-protein interaction, Mint1-CaV2.2; at 20 µM; hits give high values

The chains behind the UniProt entries cited, without tags or fusion partners.
UniProt Q00975, whole entry, looked up: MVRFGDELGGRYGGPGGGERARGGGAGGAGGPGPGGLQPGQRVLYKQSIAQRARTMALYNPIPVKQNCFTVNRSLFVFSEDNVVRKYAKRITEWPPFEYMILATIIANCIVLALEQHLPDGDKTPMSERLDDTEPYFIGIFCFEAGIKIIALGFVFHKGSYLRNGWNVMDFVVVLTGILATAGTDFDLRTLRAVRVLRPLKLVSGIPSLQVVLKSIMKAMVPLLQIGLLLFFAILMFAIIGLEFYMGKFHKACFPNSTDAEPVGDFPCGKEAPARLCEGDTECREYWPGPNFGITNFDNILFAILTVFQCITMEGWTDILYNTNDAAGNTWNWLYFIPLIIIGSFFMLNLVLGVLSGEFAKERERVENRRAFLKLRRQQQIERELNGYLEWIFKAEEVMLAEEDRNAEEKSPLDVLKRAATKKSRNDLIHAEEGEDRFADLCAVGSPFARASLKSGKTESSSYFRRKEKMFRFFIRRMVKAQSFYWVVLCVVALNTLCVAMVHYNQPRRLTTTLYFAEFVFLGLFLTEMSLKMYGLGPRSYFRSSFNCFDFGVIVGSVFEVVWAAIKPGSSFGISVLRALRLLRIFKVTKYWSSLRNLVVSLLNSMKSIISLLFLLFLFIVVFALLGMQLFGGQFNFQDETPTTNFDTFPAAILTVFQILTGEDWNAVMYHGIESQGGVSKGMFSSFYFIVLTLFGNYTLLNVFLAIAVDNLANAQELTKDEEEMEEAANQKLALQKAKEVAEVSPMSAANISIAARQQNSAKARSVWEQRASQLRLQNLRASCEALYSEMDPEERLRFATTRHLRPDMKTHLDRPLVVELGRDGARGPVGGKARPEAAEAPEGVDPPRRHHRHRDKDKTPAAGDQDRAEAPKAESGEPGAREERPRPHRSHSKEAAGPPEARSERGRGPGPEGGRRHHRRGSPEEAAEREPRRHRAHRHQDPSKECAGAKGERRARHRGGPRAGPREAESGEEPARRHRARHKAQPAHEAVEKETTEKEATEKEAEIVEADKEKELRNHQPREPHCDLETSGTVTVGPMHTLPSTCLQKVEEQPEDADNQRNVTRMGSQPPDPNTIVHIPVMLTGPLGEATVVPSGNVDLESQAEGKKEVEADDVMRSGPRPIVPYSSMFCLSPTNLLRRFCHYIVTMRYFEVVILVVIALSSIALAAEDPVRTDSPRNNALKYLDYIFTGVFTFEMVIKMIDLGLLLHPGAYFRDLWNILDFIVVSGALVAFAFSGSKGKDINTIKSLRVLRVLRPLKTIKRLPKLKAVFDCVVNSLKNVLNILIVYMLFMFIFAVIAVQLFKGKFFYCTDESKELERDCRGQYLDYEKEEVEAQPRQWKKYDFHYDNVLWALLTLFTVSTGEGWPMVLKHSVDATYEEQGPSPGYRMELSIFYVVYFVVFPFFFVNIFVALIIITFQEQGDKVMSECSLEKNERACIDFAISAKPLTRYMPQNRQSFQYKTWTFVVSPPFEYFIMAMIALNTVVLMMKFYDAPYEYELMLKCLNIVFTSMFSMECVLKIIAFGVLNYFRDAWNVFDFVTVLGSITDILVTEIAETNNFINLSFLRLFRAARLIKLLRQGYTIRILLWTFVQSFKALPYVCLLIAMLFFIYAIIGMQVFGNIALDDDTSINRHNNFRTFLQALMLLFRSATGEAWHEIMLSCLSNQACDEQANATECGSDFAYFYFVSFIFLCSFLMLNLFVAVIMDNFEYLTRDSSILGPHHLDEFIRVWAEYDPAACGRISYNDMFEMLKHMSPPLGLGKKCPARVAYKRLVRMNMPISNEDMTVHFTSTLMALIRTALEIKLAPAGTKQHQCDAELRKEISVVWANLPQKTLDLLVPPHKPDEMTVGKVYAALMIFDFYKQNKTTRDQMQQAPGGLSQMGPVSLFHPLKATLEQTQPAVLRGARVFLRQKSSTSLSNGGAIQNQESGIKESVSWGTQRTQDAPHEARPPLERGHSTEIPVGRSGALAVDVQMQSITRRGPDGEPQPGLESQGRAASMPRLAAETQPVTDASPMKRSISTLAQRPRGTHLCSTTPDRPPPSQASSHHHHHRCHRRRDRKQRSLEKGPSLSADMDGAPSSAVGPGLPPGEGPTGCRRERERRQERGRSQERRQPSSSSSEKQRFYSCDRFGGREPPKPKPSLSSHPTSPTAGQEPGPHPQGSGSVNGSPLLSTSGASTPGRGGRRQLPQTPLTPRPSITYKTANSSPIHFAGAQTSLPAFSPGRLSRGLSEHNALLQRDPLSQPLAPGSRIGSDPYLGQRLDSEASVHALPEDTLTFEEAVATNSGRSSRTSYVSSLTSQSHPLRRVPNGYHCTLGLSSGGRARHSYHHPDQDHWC

inhibition, inconclusive:
Cc1ccc(-c2nnc(SCC(=O)O)n2N)cc1 78%
CC(Sc1ccc2ccccc2n1)C(=O)O (configuration not stated) 53.9%
Cc1cc(/C=C(\C#N)C(=O)NCc2ccco2)c(C)n1-c1ccc(C(=O)O)cc1 55.2%
O=C(Oc1ccccc1)Oc1ccc2c(c1)oc(=O)c1ccccc12 62.5%
Cc1c(C)c2c(OCC(=O)N3CCC[C@H]3C(=O)O)cc3c(c2oc1=O)CCC(C)(C)O3 62.1%
C=CCNC(=O)NC(=O)CN1C(=O)NC(c2ccccc2)(c2ccccc2)C1=O 68.4%
O=c1[nH]c2ccccc2nc1-c1ccc(Cl)cc1 61%
O=C(/C=C/c1ccccc1)n1cnnc1SC/C=C/c1ccccc1 86.1%
CCC(CC)C(=O)Nc1ccc(-c2cn3cccnc3n2)cc1 55.6%
COc1ccc(-c2cc(-c3ccc(C)cc3)nc(SCc3nnc(-c4ccccc4)o3)c2C#N)cc1OC 58%
COC(=O)c1ccc(NC(=S)NC(=O)C2CCC2)cc1 59.4%
COc1ccc(Br)cc1C1N2CC3(C)CN1CC(C)(C2)C3=O (configuration not stated) 66.9%
CCCCCCOc1ccc(C(=O)NCCCn2ccnc2)cc1 52.6%
COc1cc(CNCCc2c[nH]c3ccccc23)ccc1OCc1ccc(F)cc1 61.1%
Cc1nc2cc(NC(=O)Nc3cccc(F)c3)ccc2n1C 66.8%
CC(c1ccc(F)cc1)n1c(Cn2ncc3ccccc3c2=O)n[nH]c1=S (configuration not stated) 62.7%
COC1C(C)=C(C)C(=O)N1Cc1ccccc1 (configuration not stated) 79.9%
CCN(CC)CCNC(=O)c1cc2c(s1)-c1ccccc1SC2 59.8%
COC(=O)c1c(C(=O)OC)c(C)n(Cc2cccnc2)c1C 54.1%
O=C(NCC1CCN(Cc2cccc(Cl)c2)CC1)Nc1ccccc1Cl 52.8%
CC(C)(C)c1ccc(-n2ncc3c2CCCC3NC(=O)C2(C(N)=O)CC2)cc1 (configuration not stated) 79.2%
OC1(C(F)(F)F)CC(O)(C(F)(F)F)n2nc(-c3ccccc3)cc2N1 (configuration not stated) 55.5%
CSc1ccccc1OCc1cc(C(=O)N(C)CCn2nc(C)cc2C)no1 64%
CC(=C/c1ccc(C(C)C)cc1)/C=N/NC(=O)Cn1nnnc1N 76.1%
Cc1ccc(C)c(-c2nc3ccc(N)cc3[nH]2)c1 62.8%
COc1ccccc1N1CCN(S(=O)(=O)CCNC(=O)C23CC4CC(CC(C4)C2)C3)CC1 92.1%
Cc1c(N)cc[n+](CC(=O)c2ccccc2)c1C 82%
COc1ccc(-c2nnc(NC(=O)Cc3ccccc3)o2)cc1 79.7%
COc1ccc(C2C=C(c3ccc(Br)cc3)Nc3nc(NS(C)(=O)=O)nn32)cc1 (configuration not stated) 54.3%
COc1ccc(S(=O)(=O)CCC(=O)N2CCN(c3ccc([N+](=O)[O-])cc3)CC2)cc1 83%
CC(=O)NCCc1ccc(S(=O)(=O)N2CCCC2)cc1 88.5%
CCn1nnnc1NCc1cccn1C 89.7%
COc1ccc(-c2cc3ccc(OCC(=O)NCC4CCC(C(=O)O)CC4)cc3oc2=O)cc1 (configuration not stated) 69.1%
CC1(C)CC(=O)C2=C(C1)N(Cc1cccnc1)C(=O)C2(NC(=O)c1cccnc1)C(F)(F)F (configuration not stated) 88.5%
CC(=O)Oc1ccc(C)cc1N1C(=O)c2ccc(C(=O)O)cc2C1=O 97.3%
CCOc1ccc(NC(=O)[C@@H](NC(=O)c2ccccc2)[C@@H](C)CC)cc1 55.1%
Cc1ccc(S(=O)(=O)N(C)C)cc1NC(=O)c1cc(-c2ccco2)nc2ccccc12 79.3%
COc1ccc(-c2nc(NC(=O)C3CC(=O)N(c4ccc5c(c4)OCCO5)C3)sc2C)cc1 (configuration not stated) 56.1%
Nc1ccccc1C(=O)Nc1ccc(Cl)cc1Cl 60.7%
COc1ccc(S(=O)(=O)CC2(O)CCN(C(=O)CC(C)C)CC2)cc1 61.6%
CC1=CC(c2ccccc2)n2nc(NC(=O)CCCC(=O)O)nc2N1 (configuration not stated) 60.1%
c1ccc(-n2cnc3cc(NCc4cccs4)ccc32)cc1 51.1%
CCN1CCCC1CNC(=O)c1ccc2c(c1)N(Cc1ccccc1F)C(=O)c1ccccc1S2(=O)=O (configuration not stated) 61.9%
C=C(C)CNC(=O)c1ccc2nc(Cc3ccc(OC)cc3)oc2c1 61.8%
CCc1ccc(/C=C2\Oc3c(ccc(O)c3CN3CCN(CCO)CC3)C2=O)cc1 53.7%
O=c1[nH]c(-c2ccccn2)nc(C(F)(F)F)c1Br 62%

inhibition, inactive:
O=C(O)CC(C(=O)O)N1C(=O)/C(=C/C=C/c2ccco2)SC1=S (configuration not stated) 27.4%
CCN(CC)c1nc2c3c(nc4c(c3c1C#N)CC(=O)N4c1ccc(Cl)cc1)NC(C)=N2 15.5%
CCN(CC)CCNC(=O)c1ccc(NC(=O)COc2ccccc2F)cc1 -0.2%
Cc1ccc(C(=O)NCCCN2CCOCC2)cc1Cl 4.3%
O=[N+]([O-])c1cc(Cl)ccc1N1CCCC1 -1.5%
COc1ccc2nc(-c3ccccc3)[nH]c2c1 11.7%
O=C(NN1C(=O)C2C(C1=O)C1C=CC2C12CC2)c1ccncc1 (configuration not stated) 6%
c1ccc(Cc2nnc3sc(-c4cccnc4)nn23)cc1 -12.8%
CC1(C)Cc2c(c(-c3ccco3)nc3sc4c(NCCCO)ncnc4c23)CO1 5.3%
COC(=O)C1=C(C)NC(C)=C(C(=O)OCC2CCCO2)C1c1cccc(Br)c1 (configuration not stated) 13.6%
Cc1ccc(NC(=O)CCNS(=O)(=O)c2ccc3[nH]c(=O)oc3c2)c(C)c1 -0.1%

Five entries already listed, sorted by SMILES length, falling:
inhibition, inactive:
CCN(CC)c1nc2c3c(nc4c(c3c1C#N)CC(=O)N4c1ccc(Cl)cc1)NC(C)=N2 15.5%
COC(=O)C1=C(C)NC(C)=C(C(=O)OCC2CCCO2)C1c1cccc(Br)c1 (configuration not stated) 13.6%
O=C(O)CC(C(=O)O)N1C(=O)/C(=C/C=C/c2ccco2)SC1=S (configuration not stated) 27.4%
CCN(CC)CCNC(=O)c1ccc(NC(=O)COc2ccccc2F)cc1 -0.2%
c1ccc(Cc2nnc3sc(-c4cccnc4)nn23)cc1 -12.8%

Reference: PubChem BioAssay AID2073 (Sanford-Burnham Center for Chemical Genomics, 2009)
